The values that follow come from the supplement of paper PMC12595434, “Development of retinoid nuclear receptor pathway antagonists through targeting aldehyde dehydrogenase 1A3” (iScience, 2025).

By UniProt entry, the sequences of proteins in these tests, tags left out. Where a name states a change or a piece, a line headed by the entry shows the natural chain unless it says otherwise.
UniProt Q69YQ0: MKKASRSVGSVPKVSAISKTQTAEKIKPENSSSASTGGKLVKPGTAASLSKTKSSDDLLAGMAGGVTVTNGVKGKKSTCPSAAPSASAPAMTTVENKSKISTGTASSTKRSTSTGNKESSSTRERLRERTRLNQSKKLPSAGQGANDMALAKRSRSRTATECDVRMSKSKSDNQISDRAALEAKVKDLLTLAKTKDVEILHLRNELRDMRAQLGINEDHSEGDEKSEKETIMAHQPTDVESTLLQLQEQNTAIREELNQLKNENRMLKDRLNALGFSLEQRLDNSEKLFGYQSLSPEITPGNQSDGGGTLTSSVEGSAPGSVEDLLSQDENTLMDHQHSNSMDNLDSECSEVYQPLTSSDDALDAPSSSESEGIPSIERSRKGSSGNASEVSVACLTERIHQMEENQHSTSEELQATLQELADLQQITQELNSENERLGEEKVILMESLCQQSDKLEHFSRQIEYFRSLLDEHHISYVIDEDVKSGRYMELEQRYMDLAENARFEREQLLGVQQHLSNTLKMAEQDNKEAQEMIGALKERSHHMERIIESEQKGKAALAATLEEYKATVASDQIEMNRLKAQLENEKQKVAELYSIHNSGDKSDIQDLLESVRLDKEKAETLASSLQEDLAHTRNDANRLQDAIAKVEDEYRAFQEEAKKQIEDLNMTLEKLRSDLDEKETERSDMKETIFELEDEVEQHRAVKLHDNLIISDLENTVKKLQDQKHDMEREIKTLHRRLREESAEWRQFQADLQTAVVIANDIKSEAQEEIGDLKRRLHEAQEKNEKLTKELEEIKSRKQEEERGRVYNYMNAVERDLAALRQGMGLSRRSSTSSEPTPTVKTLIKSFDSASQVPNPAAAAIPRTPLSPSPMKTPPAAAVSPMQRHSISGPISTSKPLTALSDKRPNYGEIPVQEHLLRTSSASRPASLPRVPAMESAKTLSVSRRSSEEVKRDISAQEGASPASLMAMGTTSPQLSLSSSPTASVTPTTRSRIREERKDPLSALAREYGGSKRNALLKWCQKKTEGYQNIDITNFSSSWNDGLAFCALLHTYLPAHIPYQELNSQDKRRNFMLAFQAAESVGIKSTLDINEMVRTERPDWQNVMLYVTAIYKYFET
UniProt Q5T2E6: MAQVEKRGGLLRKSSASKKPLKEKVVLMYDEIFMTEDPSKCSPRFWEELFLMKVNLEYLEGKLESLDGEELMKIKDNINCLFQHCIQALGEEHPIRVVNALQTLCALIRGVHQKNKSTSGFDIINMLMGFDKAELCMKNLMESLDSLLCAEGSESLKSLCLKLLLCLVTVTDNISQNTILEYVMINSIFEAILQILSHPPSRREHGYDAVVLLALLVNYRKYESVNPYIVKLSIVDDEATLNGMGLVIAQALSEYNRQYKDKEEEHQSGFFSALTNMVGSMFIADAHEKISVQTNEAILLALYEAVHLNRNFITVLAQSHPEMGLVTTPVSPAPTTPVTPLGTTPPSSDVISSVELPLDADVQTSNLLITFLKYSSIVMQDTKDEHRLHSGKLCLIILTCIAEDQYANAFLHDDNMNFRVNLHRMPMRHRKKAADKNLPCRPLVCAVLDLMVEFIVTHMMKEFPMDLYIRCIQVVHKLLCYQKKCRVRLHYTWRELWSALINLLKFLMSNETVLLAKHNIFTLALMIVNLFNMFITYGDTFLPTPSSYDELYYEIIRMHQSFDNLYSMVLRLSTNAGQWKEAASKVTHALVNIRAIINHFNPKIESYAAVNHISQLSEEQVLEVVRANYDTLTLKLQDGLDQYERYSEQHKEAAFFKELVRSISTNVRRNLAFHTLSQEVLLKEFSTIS
UniProt Q5I7T1: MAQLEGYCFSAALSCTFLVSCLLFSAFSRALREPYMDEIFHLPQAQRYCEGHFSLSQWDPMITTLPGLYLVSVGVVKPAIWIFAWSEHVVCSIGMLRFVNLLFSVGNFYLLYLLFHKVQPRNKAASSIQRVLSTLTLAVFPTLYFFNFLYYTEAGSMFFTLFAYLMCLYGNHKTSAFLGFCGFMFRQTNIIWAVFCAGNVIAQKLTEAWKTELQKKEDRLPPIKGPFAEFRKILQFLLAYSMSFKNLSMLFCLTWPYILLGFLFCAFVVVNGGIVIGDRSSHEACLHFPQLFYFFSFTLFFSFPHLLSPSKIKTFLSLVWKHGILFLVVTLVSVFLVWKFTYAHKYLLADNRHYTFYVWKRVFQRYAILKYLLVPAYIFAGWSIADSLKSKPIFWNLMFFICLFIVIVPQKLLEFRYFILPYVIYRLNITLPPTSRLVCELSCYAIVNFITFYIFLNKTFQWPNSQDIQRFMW
UniProt Q5T440: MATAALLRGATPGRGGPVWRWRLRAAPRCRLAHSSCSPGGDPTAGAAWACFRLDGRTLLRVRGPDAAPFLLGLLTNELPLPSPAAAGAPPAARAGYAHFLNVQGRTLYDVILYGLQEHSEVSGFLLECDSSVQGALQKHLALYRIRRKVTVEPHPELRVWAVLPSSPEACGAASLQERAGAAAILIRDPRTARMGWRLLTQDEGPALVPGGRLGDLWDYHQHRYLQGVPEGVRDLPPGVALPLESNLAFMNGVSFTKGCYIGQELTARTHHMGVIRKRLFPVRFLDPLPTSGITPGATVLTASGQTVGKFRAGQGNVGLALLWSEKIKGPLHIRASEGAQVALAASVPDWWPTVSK
UniProt Q6NUK1: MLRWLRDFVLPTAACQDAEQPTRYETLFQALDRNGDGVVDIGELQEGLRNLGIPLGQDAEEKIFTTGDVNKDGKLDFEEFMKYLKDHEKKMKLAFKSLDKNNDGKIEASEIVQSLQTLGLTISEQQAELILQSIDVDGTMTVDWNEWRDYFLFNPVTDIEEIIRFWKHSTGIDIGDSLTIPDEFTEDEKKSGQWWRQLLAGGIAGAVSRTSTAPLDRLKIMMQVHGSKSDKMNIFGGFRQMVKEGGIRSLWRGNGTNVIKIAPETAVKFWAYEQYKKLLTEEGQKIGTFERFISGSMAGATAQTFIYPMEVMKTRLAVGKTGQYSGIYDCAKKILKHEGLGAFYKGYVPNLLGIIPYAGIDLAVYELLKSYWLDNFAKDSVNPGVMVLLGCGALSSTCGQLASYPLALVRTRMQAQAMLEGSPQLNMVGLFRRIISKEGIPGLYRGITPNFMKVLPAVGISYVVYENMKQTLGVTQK
UniProt Q5T3F8: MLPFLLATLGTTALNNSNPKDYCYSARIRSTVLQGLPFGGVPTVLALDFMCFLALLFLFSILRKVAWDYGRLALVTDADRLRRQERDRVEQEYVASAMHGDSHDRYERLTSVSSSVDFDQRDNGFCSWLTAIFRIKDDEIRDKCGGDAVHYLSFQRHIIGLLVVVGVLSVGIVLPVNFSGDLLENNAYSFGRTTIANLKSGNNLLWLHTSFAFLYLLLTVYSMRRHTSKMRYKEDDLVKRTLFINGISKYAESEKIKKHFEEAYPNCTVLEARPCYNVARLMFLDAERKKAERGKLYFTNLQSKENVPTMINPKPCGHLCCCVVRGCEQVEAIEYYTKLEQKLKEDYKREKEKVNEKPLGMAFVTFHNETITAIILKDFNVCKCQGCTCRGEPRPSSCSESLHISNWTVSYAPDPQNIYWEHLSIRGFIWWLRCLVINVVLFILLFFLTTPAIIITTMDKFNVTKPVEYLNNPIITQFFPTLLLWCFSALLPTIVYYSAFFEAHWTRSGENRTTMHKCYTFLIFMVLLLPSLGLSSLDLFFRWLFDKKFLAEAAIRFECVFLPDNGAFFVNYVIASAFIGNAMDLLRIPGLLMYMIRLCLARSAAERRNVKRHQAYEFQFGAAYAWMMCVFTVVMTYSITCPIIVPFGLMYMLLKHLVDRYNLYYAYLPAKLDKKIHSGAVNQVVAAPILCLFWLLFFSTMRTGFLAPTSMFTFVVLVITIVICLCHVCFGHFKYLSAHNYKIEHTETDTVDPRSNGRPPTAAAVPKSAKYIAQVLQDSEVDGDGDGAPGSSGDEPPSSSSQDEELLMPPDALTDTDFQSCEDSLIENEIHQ
UniProt Q6P1A2: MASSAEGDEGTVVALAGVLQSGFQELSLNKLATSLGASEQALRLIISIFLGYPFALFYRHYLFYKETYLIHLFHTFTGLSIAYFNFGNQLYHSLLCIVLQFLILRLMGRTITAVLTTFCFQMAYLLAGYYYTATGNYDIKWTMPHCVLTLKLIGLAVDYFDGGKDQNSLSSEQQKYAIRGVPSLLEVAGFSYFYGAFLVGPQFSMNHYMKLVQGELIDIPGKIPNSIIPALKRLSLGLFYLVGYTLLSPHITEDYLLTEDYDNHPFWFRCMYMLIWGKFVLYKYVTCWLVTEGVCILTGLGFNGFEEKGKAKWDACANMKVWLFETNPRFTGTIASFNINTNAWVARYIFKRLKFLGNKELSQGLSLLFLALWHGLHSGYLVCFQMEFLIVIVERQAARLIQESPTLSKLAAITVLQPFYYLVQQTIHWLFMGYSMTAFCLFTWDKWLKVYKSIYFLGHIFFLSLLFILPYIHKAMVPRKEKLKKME
UniProt Q6P1Q0: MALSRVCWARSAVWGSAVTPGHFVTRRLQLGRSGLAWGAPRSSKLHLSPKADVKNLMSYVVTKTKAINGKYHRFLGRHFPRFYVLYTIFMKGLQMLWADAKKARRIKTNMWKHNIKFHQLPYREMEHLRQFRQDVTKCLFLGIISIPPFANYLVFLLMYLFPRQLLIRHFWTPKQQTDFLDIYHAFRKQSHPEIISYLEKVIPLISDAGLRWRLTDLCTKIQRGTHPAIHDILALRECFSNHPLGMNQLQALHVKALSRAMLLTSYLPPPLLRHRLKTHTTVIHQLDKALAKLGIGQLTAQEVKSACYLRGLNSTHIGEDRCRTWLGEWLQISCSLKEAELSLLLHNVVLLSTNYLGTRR
UniProt Q6P1N9: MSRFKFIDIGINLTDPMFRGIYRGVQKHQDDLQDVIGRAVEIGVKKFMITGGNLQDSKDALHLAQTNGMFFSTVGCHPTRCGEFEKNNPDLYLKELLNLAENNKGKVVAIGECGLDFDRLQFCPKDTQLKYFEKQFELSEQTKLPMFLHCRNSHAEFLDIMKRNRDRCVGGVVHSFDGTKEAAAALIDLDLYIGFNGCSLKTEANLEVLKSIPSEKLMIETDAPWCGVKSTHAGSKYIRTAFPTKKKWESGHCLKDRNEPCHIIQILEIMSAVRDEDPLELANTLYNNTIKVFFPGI
UniProt Q6P4I2: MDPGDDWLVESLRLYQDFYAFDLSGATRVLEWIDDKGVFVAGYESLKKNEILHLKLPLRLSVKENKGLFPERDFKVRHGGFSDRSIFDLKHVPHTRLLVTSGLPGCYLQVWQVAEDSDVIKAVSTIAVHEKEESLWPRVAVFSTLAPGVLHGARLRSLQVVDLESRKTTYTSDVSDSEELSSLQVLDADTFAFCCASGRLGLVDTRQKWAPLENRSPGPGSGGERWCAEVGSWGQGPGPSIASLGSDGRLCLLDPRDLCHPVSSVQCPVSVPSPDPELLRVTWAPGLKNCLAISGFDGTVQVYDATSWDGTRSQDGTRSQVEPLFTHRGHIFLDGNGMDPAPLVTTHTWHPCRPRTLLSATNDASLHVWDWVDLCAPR
UniProt Q5GLZ8: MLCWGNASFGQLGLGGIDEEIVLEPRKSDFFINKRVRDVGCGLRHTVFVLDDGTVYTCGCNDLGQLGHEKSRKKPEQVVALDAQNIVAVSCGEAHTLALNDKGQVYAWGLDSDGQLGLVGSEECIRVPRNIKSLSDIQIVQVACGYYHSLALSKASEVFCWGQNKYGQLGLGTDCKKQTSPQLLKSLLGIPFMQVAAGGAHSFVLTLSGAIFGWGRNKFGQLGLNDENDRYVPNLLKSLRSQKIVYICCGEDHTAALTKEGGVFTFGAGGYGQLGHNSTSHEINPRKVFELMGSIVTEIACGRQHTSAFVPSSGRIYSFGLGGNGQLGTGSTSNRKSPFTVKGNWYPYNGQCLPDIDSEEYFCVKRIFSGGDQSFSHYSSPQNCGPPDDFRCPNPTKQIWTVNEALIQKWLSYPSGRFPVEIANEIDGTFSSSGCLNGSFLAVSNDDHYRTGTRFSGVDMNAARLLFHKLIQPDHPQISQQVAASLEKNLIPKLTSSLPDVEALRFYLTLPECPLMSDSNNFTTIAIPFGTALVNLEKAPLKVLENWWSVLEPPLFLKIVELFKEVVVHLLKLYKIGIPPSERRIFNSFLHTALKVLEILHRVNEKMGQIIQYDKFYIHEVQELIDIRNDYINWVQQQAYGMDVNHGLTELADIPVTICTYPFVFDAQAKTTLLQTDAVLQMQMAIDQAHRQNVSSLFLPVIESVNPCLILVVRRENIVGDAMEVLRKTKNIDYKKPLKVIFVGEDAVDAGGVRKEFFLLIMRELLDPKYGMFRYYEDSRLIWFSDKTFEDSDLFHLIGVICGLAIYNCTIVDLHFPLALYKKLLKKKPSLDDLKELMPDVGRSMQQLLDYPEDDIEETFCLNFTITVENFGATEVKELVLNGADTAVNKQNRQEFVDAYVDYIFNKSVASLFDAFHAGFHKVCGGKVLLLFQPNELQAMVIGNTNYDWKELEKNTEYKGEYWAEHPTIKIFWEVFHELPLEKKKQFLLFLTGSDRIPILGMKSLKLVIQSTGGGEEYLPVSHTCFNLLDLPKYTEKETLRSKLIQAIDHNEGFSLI

Compound in this assay: CCc1cnccc1C(=O)Nc1cc2c(cc1F)NC(=O)CC2
Put plainly: melting temperature shift (DMSO Tm minus MBE1-treated Tm) in cellular thermal proteome profiling; higher = less thermal stabilization by MBE1 (negative = stabilized by MBE1). As to conditions: A375.

The list shows a part of the results. Single values of this set are uncertain.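 Many melting curves are irregular; where none melted, Tm was taken as 64 °C.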

In the case of SPECC1L (UniProt Q69YQ0), the melting temperature shift runs as follows: (MBE1 concentration: 100 nM) 0.244 °C; (MBE1 concentration: 1 uM) -0.299 °C.
On the same counts, the results for CCDC18 (UniProt Q5T9S5) are 0.195 °C and 3.96 °C.
For TWF2 (UniProt Q6IBS0), in that order: -0.845 °C and 0.798 °C.
For TNS3 (UniProt Q68CZ2), in that order: -0.604 °C and -0.519 °C.
As for TSTD2 (UniProt Q5T7W7), the melting temperature shift (MBE1 concentration: 100 nM) was -1.1 °C and the melting temperature shift (MBE1 concentration: 1 uM) was -0.455 °C.
With C10ORF76 (UniProt Q5T2E6), the melting temperature shift is, setting by setting: (MBE1 concentration: 100 nM) -0.769 °C; (MBE1 concentration: 1 uM) -0.543 °C.
As to ANKRD54 (UniProt Q6NXT1), the melting temperature shift is, setting by setting: (MBE1 concentration: 100 nM) -1.79 °C; (MBE1 concentration: 1 uM) 0.241 °C.
Turning to UBAP2 (UniProt Q5T6F2), the melting temperature shift (MBE1 concentration: 100 nM) is -1.23 °C and the melting temperature shift (MBE1 concentration: 1 uM) is 0.122 °C.
UniProt Q5BKX5: the melting temperature shift is, setting by setting: (MBE1 concentration: 100 nM) 0.989 °C; (MBE1 concentration: 1 uM) -0.338 °C.
Regarding MBLAC2 (UniProt Q68D91), the melting temperature shift by setting is: (MBE1 concentration: 100 nM) -0.455 °C; (MBE1 concentration: 1 uM) 0.439 °C.
As for LRRC8E (UniProt Q6NSJ5), the melting temperature shift (MBE1 concentration: 100 nM) is -1.13 °C and the melting temperature shift (MBE1 concentration: 1 uM) is 1.2 °C.
For PDE12 (UniProt Q6L8Q7), in that order: -0.562 °C and 0.415 °C.
On to LYPLAL1 (UniProt Q5VWZ2), for which the melting temperature shift (MBE1 concentration: 100 nM) was 0.208 °C and the melting temperature shift (MBE1 concentration: 1 uM) is 0.0201 °C.
On the same counts, the results for NUP188 (UniProt Q5SRE5) are 0.721 °C and 0.287 °C.
In the case of UniProt Q5TH69, the melting temperature shift is, setting by setting: (MBE1 concentration: 100 nM) -0.22 °C; (MBE1 concentration: 1 uM) 1.7 °C.
Take UniProt Q5I7T1: the melting temperature shift (MBE1 concentration: 100 nM) was -0.255 °C and the melting temperature shift (MBE1 concentration: 1 uM) stood at 0.656 °C.
On the same counts, the results for RNF213 (UniProt Q63HN8) are -0.518 °C and 0.0941 °C.
With PRMT9 (UniProt Q6P2P2), the melting temperature shift is 0.769 °C (MBE1 concentration: 100 nM) and 0.208 °C (MBE1 concentration: 1 uM).
For NIPBL (UniProt Q6KC79), in that order: -0.192 °C and -0.647 °C.
On the same counts, the results for RNF219 (UniProt Q5W0B1) are -2.25 °C and 0.428 °C.
For IBA57 (UniProt Q5T440), in that order: -0.443 °C and 0.226 °C.
In the case of UniProt Q5VTQ0, the melting temperature shift runs as follows: (MBE1 concentration: 100 nM) -0.557 °C; (MBE1 concentration: 1 uM) 0.828 °C.
On the same counts, the results for LPCAT4 (UniProt Q643R3) are -0.649 °C and -0.527 °C.
For RPL22L1 (UniProt Q6P5R6), in that order: 0.14 °C and 0.36 °C.
On the same counts, the results for LAMTOR1 (UniProt Q6IAA8) are -2.12 °C and 0.91 °C.
SLC25A24 (UniProt Q6NUK1): the melting temperature shift by setting is: (MBE1 concentration: 100 nM) -1.03 °C; (MBE1 concentration: 1 uM) -1.31 °C.
With TMEM63B (UniProt Q5T3F8), the melting temperature shift (MBE1 concentration: 100 nM) turned out to be 0.928 °C and the melting temperature shift (MBE1 concentration: 1 uM) turned out to be 1.22 °C.
On the same counts, the results for CEP350 (UniProt Q5VT06) are 0.733 °C and 2.53 °C.
On the same counts, the results for LPCAT3 (UniProt Q6P1A2) are 0.708 °C and 0.47 °C.
For SLC27A4 (UniProt Q6P1M0), in that order: 0.164 °C and 0.00891 °C.
For the target LETMD1 (UniProt Q6P1Q0), the melting temperature shift reads like this: (MBE1 concentration: 100 nM) -0.624 °C; (MBE1 concentration: 1 uM) 0.215 °C.
For GPATCH4 (UniProt Q5T3I0), in that order: -1.2 °C and -0.0384 °C.
For SAMD9 (UniProt Q5K651), in that order: -1.03 °C and -0.179 °C.
TTC19 (UniProt Q6DKK2): the melting temperature shift by setting is: (MBE1 concentration: 100 nM) -1.04 °C; (MBE1 concentration: 1 uM) -0.382 °C.
For the target TATDN1 (UniProt Q6P1N9), the melting temperature shift runs as follows: (MBE1 concentration: 100 nM) -1.06 °C; (MBE1 concentration: 1 uM) -1.91 °C.
On the same counts, the results for DCAF10 (UniProt Q5QP82) are -0.651 °C and -0.263 °C.
On the same counts, the results for WDR73 (UniProt Q6P4I2) are -0.181 °C and 0.483 °C.
For PPP2R2D (UniProt Q66LE6), in that order: -0.317 °C and 0.879 °C.
For UniProt Q5XUX1, the melting temperature shift was 0.0469 °C (MBE1 concentration: 100 nM) and 0.238 °C (MBE1 concentration: 1 uM).
For the target UBR4 (UniProt Q5T4S7), the melting temperature shift runs as follows: (MBE1 concentration: 100 nM) 0.861 °C; (MBE1 concentration: 1 uM) 0.299 °C.
On the same counts, the results for UniProt Q6NW34 are -0.899 °C and -0.755 °C.
For HERC4 (UniProt Q5GLZ8), in that order: 0.421 °C and 0.11 °C.
For PPP1R18 (UniProt Q6NYC8), in that order: 0.708 °C and 0.769 °C.
For UniProt Q5SNT2, the melting temperature shift runs as follows: (MBE1 concentration: 100 nM) -0.055 °C; (MBE1 concentration: 1 uM) 0.122 °C.
Turning to EMC10 (UniProt Q5UCC4), the melting temperature shift (MBE1 concentration: 100 nM) was -1.02 °C and the melting temperature shift (MBE1 concentration: 1 uM) was 0.458 °C.
On to ARHGAP17 (UniProt Q68EM7), for which the melting temperature shift by setting is: (MBE1 concentration: 100 nM) -0.08 °C; (MBE1 concentration: 1 uM) 0.16 °C.
For UniProt Q6N043, the melting temperature shift is -1.53 °C (MBE1 concentration: 100 nM) and 2.72 °C (MBE1 concentration: 1 uM).
On the same counts, the results for MAP1S (UniProt Q66K74) are 0.891 °C and -0.11 °C.
For NOMO2 (UniProt Q5JPE7), in that order: 0.0671 °C and 1.19 °C.
For RWDD4 (UniProt Q6NW29), in that order: -1.97 °C and -0.595 °C.
Turning to UniProt Q68D10, the melting temperature shift was -2.08 °C (MBE1 concentration: 100 nM) and 0.389 °C (MBE1 concentration: 1 uM).
On the same counts, the results for PTRF (UniProt Q6NZI2) are -1.54 °C and 0.719 °C.
